Data reported in patent publication US5756355A, “Lipid membrane sensors” (Ecole Polytechnique Federale de Lausanne, priority 1992, dated 1998).

Legend:
[1] = Electrical properties of mixed bilayers with mixed thiolipid/phospholipid first layer on gold electrode (Example 6); assay type: physicochemical
[2] = Capacitance and resistance of pure thiolipid layers and thiolipid/phospholipid bilayers on gold electrode (Example 5); assay type: physicochemical

SMILES	capacitance of final stable mixed bilayers on the gold electrodes [1]	Capacitance of bilayer membranes of pure thiolipid/phospholipid ([2]; second layer phospholipid DMPC) [μF/cm^2]	Capacitance of bilayer membranes of pure thiolipid/phospholipid ([2]; second layer phospholipid DPPC) [μF/cm^2]	Capacitance of bilayer membranes of pure thiolipid/phospholipid ([2]; second layer phospholipid POPC) [μF/cm^2]
CCCCCCCCCCCCCC(=O)OC[C@H](COP(=O)([O-])OCC[N+](C)(C)C)OC(=O)CCCCCCCCCCCCC [DMPC]	0.8 (±10%) μF/cm^2			
CCCCCCCCCCCCCCCC(=O)OC[C@H](COP(=O)(O)OCCOCCOCCSSCCOCCOCCOP(=O)(O)OC[C@@H](COC(=O)CCCCCCCCCCCCCCC)OC(=O)CCCCCCCCCCCCCCC)OC(=O)CCCCCCCCCCCCCCC [Ex. 1, bis[8-(1,2-dipalmitoyl-sn-glycero-3-phosphoryl) 3,6-dioxaoctyl]disulfide monohydrate]		0.80 ± 0.01	0.72 ± 0.01	0.78 ± 0.03
CCCCCCCCCCCCCCCC(=O)OC[C@H](COP(=O)(O)OCCOCCSSCCOCCOP(=O)(O)OC[C@@H](COC(=O)CCCCCCCCCCCCCCC)OC(=O)CCCCCCCCCCCCCCC)OC(=O)CCCCCCCCCCCCCCC [Ex. 3, Bis[5-(1,2-dipalmitoyl-sn-glycero-3-phosphoryl) -3-oxapentyl]disulfide monohydrate]		0.80 ± 0.02	0.72 ± 0.05	0.77 ± 0.02
CCCCCCCC/C=C\CCCCCCCC(=O)O[C@H](COC(=O)CCCCCCCCCCCCCCC)COP(=O)([O-])OCC[N+](C)(C)C [POPC, 1-palmitoyl-2-oleoyl-sn-glycero-3-phosphocholine]	0.8 (±10%) μF/cm^2			
